Measured values: US20240139151A1, “COMPOSITION INCLUDING DECURSINOL AS ACTIVE INGREDIENT FOR PREVENTING OR TREATING SMOOTH MUSCLE CELL PROLIFERATIVE DISEASES” (KYUNGSUNG UNIVERSITY INDUSTRY COOPERATION FOUNDATION, priority 2021, published 2024)

Tested on: vascular smooth cell line A10
Assay: Inhibition of high glucose-induced proliferation of A10 cells (EC100)
Type: cell-based

Compound	Therapeutic index (IC50/EC100) (IC50 divided by EC100)	Therapeutic index (IC50/EC100) (IC50 divided by EC100, listed as decursinol)
CC(C)=CC(=O)O[C@H]1Cc2cc3ccc(=O)oc3cc2OC1(C)C [Decursin, decursin]	11.5	
C/C=C(/C)C(=O)O[C@H]1Cc2cc3ccc(=O)oc3cc2OC1(C)C [Decursinol angelate, decursinol angelate]	28.1	
CC1(C)Oc2cc3oc(=O)ccc3cc2C[C@@H]1O [Decursinol, decursinol]	>49.5	34.7
